Reference: paper PMC5241876

Molecular target: neural cell adhesion molecule 1 (NCAM1) (mouse (endogenous in NMuMG))
Test: affinity purification with mass spectrometry; NCAM1 interactome Dataset III: NCAM1 co-IP from in vivo formaldehyde-crosslinked wild-type NMuMG cells before and after 48 h TGFB1; smaller scale; six-plex TMT

binding: binds
B1: integrin alpha-2 (ITGA2) (protein, UniProt Q62469 27-1178)
chain: YNVGLPGAKIFSGPSSEQFGYSVQQLTNPQGNWLLVGSPWSGFPENRMGDVYKCPVDLPTATCEKLNLQNSASISNVTEIKTNMSLGLTLTRNPGTGGFLTCGPLWAHQCGNQYYATGICSDVSPDFQFLTSFSPAVQACPSLVDVVVVCDESNSIYPWEAVKNFLVKFVTGLDIGPKKTQVALIQYANEPRIIFNLNDFETKEDMVQATSETRQHGGDLTNTFRAIEFARDYAYSQTSGGRPGATKVMVVVTDGESHDGSKLKTVIQQCNDDEILRFGIAVLGYLNRNALDTKNLIKEIKAIASTPTERYFFNVADEAALLEKAGTLGEQIFSIEGTVQGGDNFQMEMAQVGFSADYAPQNDILMLGAVGAFDWSGTLVQETSHKPVIFPKQAFDQVLQDRNHSSFLGYSVAAISTEDGVHFVAGAPRANYTGQIVLYSVNKQGNVTVIQSHRGDQIGSYFGSVLCSVDVDKDTITDVLLVGAPTYMNDLKKEEGKVYLFTITKGILNQHQFLEGPEGTGNARFGSAIAALSDINMDGFNDVIVGSPVENENSGAVYIYNGHQGTIRTKYSQKILGSNGAFRRHLQFFGRSLDGYGDLNGDSITDVSIGALGQVIQLWSQSIADVAIEALFTPDKITLLNKDAKITLKLCFRAEFRPAGQNNQVAILFNMTLDADGHSSRVTSRGVFRENSERFLQKNMVVNEVQKCSEHHISIQKPSDVVNPLDLRVDISLENPGTSPALEAYSETVKVFSIPFYKECGSDGICISDLILDVQQLPAIQTQSFIVSNQNKRLTFSVILKNRGESAYNTVVLAEFSENLFFASFSMPVDGTEVTCEVGSSQKSVTCDVGYPALKSEQQVTFTINFDFNLQNLQNQAAINFQAFSESQETNKADNSVSLTIPLLYDAELHLTRSTNINFYEISSDENAPSVIKSVEDIGPKFIFSLKVTAGSAPVSMALVTIHIPQYTKEKNPLLYLTGIQTDQAGDISCTAEINPLKLPHTAPSVSFKNENFRHTKELDCRTTSCSNITCWLKDLHMKAEYFINVTTRVWNRTFAASTFQTVQLTAAAEIDTHNPQLFVIEENAVTIPLMIMKPTEKAEVPTGVIIGSIIAGILLLLAMTAGLWKLGFFKRQYKKMGQNPDEMDETTELNS

binding: binds
B2: integrin alpha V (ITGAV) (protein, UniProt P43406 31-1044)
chain: FNLDVESPAEYAGPEGSYFGFAVDFFEPSTSSRMFLLVGAPKANTTQPGIVEGGQVLKCECSSSRRCQPIEFDSTGNRDYAKDDPLEFKSHQWFGASVRSKQDKILACAPLYHWRTEMKQEREPVGTCFLQDGTKTVEYAPCRSKNIDADGQGFCQGGFSIDFTKADRVLLGGPGSFYWQGQLISDQVAEIISKYDPNVYSIKYNNQLATRTAQAIFDDSYLGYSVAVGDFNGDGIEDFVSGVPRAARTLGMVYIYDGKNMSSLHNFTGEQMAAYFGFSVAATDINGDDYADVFIGAPLFMDRGSDGKLQEVGQVSVSLQRAVGDFQTTKLNGFEVFARFGSAIAPLGDLDQDGFNDIAIAAPYGGEDKKGLVYIFNGRSTGLNSVPSQILEGQWAAQSMPPSFGYSMKGATDVDRNGYPDLVVGAFGVDRAVLYRARPVVTVNAGLEVYPSILNQDNKICPLPGTALKVSCFNVRFCLKADGKGTLPRKLHFQVELLLDKLKQKGAIRRALFLHNRSPVHSKTMTVFRGGQMQCEELVAYLRDESEFRDKLTPITIFMEYRLDQRTAADATGLQPILNQFTPANVSRQAHILLDCGEDNVCKPKLEVSVNSDQKKIYIGDDNPLTLTVKAQNQGEGAYEAELIVSIPPQADFIGVVRNNEALARLSCAFKTENQTRQVVCDLGNPMKAGTQLLAGLRFSVHQQSEMDTSVKFDLKIQSSNSFDNVSPVVSYKVDLAVLAAVEIRGVSSPDHIFLPIPNWEYKENPETEEDVGPIVQHIYELRNNGPSSFSKAILNLQWPYKYNNNTLLYILHYDIDGPMNCTADTEINPLRIKTPEKNDTAAAGQGERNHLITKRDLTLREGDVHTLGCGIAKCLQITCQVGRLDRGKSAILYVKSLLWTETFMNKENQNHSYSLKSSASFNIIEFPYKNLPIEDLFNSTLVTTNITWGIQPAPMPVPVWVIILAVLAGLLLLAVLVFVMYRMGFFKRVRPPQEEQEREQLQPHENGEGNSET

These are yes or no findings as the source states them, for the method shown. Binding seen in cells or lysates may run through a third protein. These calls come from enrichment with a bait or labelling near it, and not all partners need be listed. One block for each binder: values may come before it.
